Measurements published in the supplement of paper PMC8426693.
Some of the results follow.

Columns and labels:
Assay in all cases: NMR binding call after quantification (hit when 2 of 3 NMR criteria are met) (binary (1 = binding, 0 = not binding)); higher = binding
Settings in all cases: RNA concentration 10 µM; fragment concentration 200 µM; 293 K
SARS-CoV-2 5_SL7 RNA = tested on: SARS-CoV-2 5_SL7 RNA
SARS-CoV-2 5_SL8 RNA = tested on: SARS-CoV-2 5_SL8 RNA
[1] = tested on: SARS-CoV-2 attenuator hairpin (att HP) RNA
[2] = tested on: SARS-CoV-2 frameshift pseudoknot (PK) RNA

Measured: NMR binding call

NC(=S)Nc1ccc(OC(F)(F)F)cc1
0: all assays above

COc1ccc(C)cc1NC(=O)CN.Cl
0: all assays above

O=C(Cc1ccc(Cl)cc1)Nc1ncccn1
0: all assays above

CC(C)(C(N)=O)c1ccccc1
0: all assays above

Cc1cc(C2CCCN2S(C)(=O)=O)no1 (configuration not stated)
0: all assays above

NC(=O)c1cnn(CCO)c1
0: all assays above

CCOC(=O)CN1CCS(=O)(=O)CC1
0: all assays above

CN(C)S(=O)(=O)c1cn[nH]c1
0: all assays above

CCc1ncc(CNC)s1
0: all assays above

CC(=O)N1CCC(C#N)CC1
0: all assays above

NC(=O)C1CCCn2ccnc21 (configuration not stated)
0: all assays above

O=C1CN(Cc2ccccc2)CC(=O)N1
0: all assays above

CNc1ncc(C(F)(F)F)cc1Cl
0: all assays above

NC(=O)c1ccnc(NC2CC=CC2)c1
0: all assays above

Cc1cccc(NC(=O)Nc2nc(C)cs2)c1
0: all assays above

Cc1noc(C)c1CC(C)C(=O)N(C)C (configuration not stated)
0: all assays above

CC(=O)c1ccc(OC(F)F)cc1
0: all assays above

O=C(CN1CCCC1)Nc1ccc(F)cc1
0: all assays above

CNC(C)c1ccc(F)cc1.Cl (configuration not stated)
0: all assays above

CC(=O)Nc1ccc2[nH]c(=O)[nH]c2c1
0: all assays above

Cc1nsc(N2CCOC(C)C2C)n1 (configuration not stated)
0: all assays above

CC(=O)c1ccc(OCC(=O)O)cc1
0: all assays above

CCC(=O)Nc1nnc(C2CCCCC2)s1
0: all assays above

CC(=O)NCC1(c2ccccc2)CCOCC1
0: all assays above

CS(=O)(=O)CC(O)c1ccccc1 (configuration not stated)
0: all assays above

OC1CCN(Cc2ccsc2)CC1
0: all assays above

CC1(C)CN(C(=O)CC(F)(F)F)CCO1
0: all assays above

COCC(=O)NCc1ccc(C)cc1
0: all assays above

CN1CCN(S(=O)(=O)N(C)C)CC1
0: all assays above

O=C(O)c1ccc(OCc2ccccc2)cc1
0: all assays above

CCC(=O)Nc1ccc(C)cc1O
0: all assays above

Cn1ccc(C(=O)Nc2cccc(C(=O)O)c2)n1
0: all assays above

CC(=O)Nc1ccc(CC(N)=O)cc1
0: all assays above

Cn1cc(C(=O)O)c(-c2ccncc2)n1
0: all assays above

CC(C)Oc1ccc(-c2csc(N)n2)cc1
0: all assays above

Cc1ccccc1OCC(=O)N(C)C
0: all assays above

CN1CCN(C(=O)Nc2ccc(F)cc2)CC1
0: all assays above

CC(=O)NCC1CNCCO1 (configuration not stated)
0: all assays above

O=C(Nc1ccc(F)cc1)Nc1ccc(F)cc1
0: all assays above

CCc1ccc(NC(=O)c2cnccn2)cc1
0: all assays above

Fc1cccc(CN2CCOCC2)c1
0: all assays above

Cc1cccc(C(=O)N(C)C)c1C
0: all assays above

O=C(c1c(F)cccc1F)N1CCCC1
0: all assays above

Pulled one by one from the list above, 2 records:
Cc1cccc(C(=O)N(C)C)c1C
0: all assays above

O=C(c1c(F)cccc1F)N1CCCC1
0: all assays above
